In the supplement of paper PMC12823440, “Inhibitors supercharge kinase turnover through native proteolytic circuits” (Nature, 2025):
Structures can show the parent of a compound that is named as a salt. This is one part of the list. Hit calls seldom repeat between salt and free forms of one compound.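 Kinases were expressed as nanoluciferase fusions in K562 cells and luminescence was read every 4 h between 2 and 18 h as percent of control, DMSO set to 100% and a positive control to 0%. A time point counts as decreased when the signal drops significantly (2 sigma). The hit call is the authors' own, does not follow from the count of time points alone, and its rule is not shown.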

Chains of the proteins cited; added tags and fusions are not shown. Lines headed by an entry give the natural chain unless they say otherwise; changes in a name come on top.
UniProt P50613: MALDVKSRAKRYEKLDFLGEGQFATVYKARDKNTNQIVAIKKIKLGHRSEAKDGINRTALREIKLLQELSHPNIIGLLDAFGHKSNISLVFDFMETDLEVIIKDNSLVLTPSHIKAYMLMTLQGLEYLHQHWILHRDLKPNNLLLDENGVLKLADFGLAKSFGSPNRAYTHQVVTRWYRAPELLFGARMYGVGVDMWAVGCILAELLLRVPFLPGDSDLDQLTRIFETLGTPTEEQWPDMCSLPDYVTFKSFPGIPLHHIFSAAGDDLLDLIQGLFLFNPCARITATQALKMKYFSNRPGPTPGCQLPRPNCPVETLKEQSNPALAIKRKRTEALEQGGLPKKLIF
UniProt P50750, whole entry: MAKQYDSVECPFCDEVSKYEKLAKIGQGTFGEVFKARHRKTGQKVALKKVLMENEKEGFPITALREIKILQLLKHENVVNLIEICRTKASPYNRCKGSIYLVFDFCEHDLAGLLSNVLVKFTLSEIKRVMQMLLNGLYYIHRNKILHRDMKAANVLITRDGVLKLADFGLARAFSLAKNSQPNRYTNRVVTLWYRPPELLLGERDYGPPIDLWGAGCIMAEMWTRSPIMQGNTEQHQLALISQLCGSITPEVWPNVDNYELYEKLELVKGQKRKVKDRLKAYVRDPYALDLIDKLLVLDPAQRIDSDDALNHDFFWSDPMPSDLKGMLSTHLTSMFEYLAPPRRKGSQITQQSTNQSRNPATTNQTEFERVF
UniProt O96017, whole entry: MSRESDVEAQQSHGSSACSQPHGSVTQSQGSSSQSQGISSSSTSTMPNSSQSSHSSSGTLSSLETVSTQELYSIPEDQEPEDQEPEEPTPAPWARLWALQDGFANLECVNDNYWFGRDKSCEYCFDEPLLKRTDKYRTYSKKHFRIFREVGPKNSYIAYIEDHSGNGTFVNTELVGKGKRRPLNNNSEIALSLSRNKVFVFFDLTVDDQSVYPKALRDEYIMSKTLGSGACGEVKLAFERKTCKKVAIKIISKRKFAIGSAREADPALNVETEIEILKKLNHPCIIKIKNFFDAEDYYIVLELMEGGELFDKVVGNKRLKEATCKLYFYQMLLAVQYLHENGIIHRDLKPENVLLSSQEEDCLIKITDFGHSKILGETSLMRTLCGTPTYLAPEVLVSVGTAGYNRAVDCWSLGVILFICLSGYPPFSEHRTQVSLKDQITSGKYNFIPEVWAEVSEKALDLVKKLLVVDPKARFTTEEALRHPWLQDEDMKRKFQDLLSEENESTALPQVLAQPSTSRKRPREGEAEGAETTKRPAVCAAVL
UniProt P07333, whole entry: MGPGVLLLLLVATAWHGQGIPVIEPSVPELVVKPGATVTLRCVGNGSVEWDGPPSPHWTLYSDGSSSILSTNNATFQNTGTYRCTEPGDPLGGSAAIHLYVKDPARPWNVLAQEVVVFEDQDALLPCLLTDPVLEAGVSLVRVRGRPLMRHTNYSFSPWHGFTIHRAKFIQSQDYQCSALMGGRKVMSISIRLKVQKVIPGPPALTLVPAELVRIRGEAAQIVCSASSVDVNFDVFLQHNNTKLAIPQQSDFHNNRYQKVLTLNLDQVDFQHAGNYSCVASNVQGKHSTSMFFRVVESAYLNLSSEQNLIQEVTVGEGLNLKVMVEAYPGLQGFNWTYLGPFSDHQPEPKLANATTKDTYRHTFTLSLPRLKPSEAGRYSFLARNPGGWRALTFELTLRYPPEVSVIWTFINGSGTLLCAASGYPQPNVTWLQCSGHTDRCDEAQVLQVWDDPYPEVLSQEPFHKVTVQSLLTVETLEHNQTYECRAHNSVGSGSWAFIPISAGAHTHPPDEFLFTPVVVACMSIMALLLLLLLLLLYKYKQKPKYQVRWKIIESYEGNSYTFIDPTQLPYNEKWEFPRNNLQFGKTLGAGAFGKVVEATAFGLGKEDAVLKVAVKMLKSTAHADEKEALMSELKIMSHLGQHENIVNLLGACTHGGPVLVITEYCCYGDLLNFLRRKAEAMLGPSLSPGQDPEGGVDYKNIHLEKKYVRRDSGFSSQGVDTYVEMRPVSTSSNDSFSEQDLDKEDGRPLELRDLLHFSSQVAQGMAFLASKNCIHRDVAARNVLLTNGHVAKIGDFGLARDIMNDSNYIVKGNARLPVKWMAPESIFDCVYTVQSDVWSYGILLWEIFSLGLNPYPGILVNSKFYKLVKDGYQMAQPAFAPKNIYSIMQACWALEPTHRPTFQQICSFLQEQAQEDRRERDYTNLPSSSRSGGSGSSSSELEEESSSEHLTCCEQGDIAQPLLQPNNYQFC
UniProt P41240: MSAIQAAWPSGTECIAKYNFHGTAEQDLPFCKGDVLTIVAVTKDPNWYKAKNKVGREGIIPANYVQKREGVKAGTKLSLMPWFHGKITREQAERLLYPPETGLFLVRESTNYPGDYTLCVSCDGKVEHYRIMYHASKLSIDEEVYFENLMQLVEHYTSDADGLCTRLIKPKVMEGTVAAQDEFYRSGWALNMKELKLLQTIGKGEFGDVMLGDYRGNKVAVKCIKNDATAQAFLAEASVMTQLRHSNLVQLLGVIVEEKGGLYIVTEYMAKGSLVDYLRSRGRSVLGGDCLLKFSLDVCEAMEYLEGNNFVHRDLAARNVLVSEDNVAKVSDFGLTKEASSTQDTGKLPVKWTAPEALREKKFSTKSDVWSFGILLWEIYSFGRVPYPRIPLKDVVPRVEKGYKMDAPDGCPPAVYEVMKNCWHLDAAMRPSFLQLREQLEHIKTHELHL
UniProt P48729: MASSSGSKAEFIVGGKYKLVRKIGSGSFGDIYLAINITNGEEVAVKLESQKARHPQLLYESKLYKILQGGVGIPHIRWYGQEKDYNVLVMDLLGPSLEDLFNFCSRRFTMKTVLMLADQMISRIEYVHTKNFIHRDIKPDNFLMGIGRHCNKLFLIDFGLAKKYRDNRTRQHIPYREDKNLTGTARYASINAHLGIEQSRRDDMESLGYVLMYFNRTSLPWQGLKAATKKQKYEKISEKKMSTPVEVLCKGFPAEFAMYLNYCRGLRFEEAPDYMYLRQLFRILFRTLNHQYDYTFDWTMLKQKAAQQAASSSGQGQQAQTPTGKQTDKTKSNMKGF
UniProt P48730: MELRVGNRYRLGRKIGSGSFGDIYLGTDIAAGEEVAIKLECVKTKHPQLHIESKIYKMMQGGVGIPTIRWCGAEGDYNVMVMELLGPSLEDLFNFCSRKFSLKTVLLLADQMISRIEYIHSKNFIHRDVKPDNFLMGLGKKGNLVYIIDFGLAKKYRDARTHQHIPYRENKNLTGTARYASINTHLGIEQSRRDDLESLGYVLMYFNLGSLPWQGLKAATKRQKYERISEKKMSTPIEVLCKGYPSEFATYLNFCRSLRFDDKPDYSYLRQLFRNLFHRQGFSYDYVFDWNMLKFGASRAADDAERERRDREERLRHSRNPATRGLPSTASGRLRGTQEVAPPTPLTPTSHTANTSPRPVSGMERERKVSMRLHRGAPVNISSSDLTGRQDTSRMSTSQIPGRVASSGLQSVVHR
UniProt Q08345: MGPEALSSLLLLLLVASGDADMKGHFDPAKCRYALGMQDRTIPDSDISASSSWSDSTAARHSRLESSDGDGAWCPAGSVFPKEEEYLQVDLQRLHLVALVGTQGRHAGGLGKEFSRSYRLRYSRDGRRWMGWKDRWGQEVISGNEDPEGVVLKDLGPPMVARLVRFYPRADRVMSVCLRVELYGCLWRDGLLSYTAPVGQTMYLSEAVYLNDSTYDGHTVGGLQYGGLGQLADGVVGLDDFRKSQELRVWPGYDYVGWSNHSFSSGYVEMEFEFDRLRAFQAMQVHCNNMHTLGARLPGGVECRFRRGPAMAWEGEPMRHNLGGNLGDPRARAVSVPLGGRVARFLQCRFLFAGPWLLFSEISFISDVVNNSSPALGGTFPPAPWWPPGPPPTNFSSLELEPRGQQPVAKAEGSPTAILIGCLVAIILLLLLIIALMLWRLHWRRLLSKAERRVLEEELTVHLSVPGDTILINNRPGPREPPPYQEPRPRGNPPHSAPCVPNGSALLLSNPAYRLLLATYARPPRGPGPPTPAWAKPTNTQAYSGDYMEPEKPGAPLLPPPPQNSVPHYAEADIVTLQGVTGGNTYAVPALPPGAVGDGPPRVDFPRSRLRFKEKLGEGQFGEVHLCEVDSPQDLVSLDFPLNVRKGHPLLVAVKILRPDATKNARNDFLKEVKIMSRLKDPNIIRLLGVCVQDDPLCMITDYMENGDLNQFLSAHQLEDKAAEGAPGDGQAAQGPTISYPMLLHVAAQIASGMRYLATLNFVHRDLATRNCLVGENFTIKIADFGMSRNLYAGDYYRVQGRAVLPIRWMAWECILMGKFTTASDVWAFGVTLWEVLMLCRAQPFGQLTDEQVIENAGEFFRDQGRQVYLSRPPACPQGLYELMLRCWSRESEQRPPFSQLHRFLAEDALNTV
UniProt Q9Y463, whole entry, looked up: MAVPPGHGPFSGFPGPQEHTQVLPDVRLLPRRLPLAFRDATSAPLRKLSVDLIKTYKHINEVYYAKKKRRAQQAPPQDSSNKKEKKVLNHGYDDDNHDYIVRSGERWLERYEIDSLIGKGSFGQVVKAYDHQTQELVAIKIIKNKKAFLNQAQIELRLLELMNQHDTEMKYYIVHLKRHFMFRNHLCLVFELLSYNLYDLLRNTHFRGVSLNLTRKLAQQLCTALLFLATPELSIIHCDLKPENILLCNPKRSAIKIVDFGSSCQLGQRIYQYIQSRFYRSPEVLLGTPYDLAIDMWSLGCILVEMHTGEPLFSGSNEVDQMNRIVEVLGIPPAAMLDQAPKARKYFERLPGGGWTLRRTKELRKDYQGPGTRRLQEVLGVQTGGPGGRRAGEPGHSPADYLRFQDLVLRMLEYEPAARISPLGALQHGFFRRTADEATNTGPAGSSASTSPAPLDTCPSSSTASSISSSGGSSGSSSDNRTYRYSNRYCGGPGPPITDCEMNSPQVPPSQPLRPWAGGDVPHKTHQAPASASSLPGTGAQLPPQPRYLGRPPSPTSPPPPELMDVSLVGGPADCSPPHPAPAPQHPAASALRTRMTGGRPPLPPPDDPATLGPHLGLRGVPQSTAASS
UniProt Q92630: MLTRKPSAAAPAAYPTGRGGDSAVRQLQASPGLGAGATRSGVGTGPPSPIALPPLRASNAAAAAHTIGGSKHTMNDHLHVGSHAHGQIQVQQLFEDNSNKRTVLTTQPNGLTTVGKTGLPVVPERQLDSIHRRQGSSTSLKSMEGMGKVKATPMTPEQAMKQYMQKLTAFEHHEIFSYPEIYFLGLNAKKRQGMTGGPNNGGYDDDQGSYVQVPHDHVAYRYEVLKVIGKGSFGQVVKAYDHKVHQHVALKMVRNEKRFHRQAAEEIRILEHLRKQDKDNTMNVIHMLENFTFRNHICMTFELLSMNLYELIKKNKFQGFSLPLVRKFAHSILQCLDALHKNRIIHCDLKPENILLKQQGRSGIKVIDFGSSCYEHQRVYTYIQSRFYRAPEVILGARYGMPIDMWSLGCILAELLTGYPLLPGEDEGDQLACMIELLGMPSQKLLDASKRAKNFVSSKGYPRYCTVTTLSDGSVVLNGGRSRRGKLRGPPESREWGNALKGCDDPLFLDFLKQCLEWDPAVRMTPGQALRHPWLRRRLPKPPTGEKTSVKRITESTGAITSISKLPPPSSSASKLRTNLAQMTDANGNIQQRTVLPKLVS

Assays:
Test in all cases: kinase-Nluc reporter destabilization hit call (1 = scored as downregulated) (binary); higher = compound decreases kinase abundance
Conditions in all cases: K562; 2-18 h
CDK7 = CDK7 (UniProt P50613)
CDK9 = CDK9 (UniProt P50750)
CHEK2 = CHEK2 (UniProt O96017)
CSF1R = CSF1R (UniProt P07333)
CSK = CSK (UniProt P41240)
CSNK1A1 = CSNK1A1 (UniProt P48729)
CSNK1D = CSNK1D (UniProt P48730)
DDR1 = DDR1 (UniProt Q08345)
DYRK1B = DYRK1B (UniProt Q9Y463)
DYRK2 = DYRK2 (UniProt Q92630)

SMILES	kinase-Nluc reporter destabilization hit call (CDK7)	kinase-Nluc reporter destabilization hit call (CDK9)	kinase-Nluc reporter destabilization hit call (CHEK2)	kinase-Nluc reporter destabilization hit call (CSF1R)	kinase-Nluc reporter destabilization hit call (CSK)	kinase-Nluc reporter destabilization hit call (CSNK1A1)	kinase-Nluc reporter destabilization hit call (CSNK1D)	kinase-Nluc reporter destabilization hit call (DDR1)	kinase-Nluc reporter destabilization hit call (DYRK1B)	kinase-Nluc reporter destabilization hit call (DYRK2)
CCCCNc1ncc(C(=O)NCc2ccc(-n3ccnc3)cc2)c(NC2CCC(O)CC2)n1 (stereo not given) (10 µM)	inactive: 0	inactive: 0	inactive: 0	inactive: 0	inactive: 0	inactive: 0	inactive: 0	active: 1	inactive: 0	inactive: 0
CNCc1ccccc1Sc1cccc2ccccc12 [IFN alpha-IFNAR-IN-1 (hydrochloride)] (10 µM)	inactive: 0	inactive: 0	inactive: 0	inactive: 0	inactive: 0	inactive: 0	inactive: 0	inactive: 0	inactive: 0	inactive: 0
Nc1[nH]nc2nnc(-c3c(-c4ccccc4)nn4ccccc34)cc12 (10 µM)	inactive: 0	inactive: 0	inactive: 0	inactive: 0	inactive: 0	inactive: 0	inactive: 0	inactive: 0	inactive: 0	inactive: 0
CCOc1cc(=O)[nH]cc1-c1ccc(CC(=O)Nc2cc(C(C)(C)C(F)(F)F)on2)c(F)c1 (10 µM)	inactive: 0	inactive: 0	inactive: 0	inactive: 0	inactive: 0	inactive: 0	inactive: 0	inactive: 0	inactive: 0	inactive: 0
CCOC(=O)c1c(Nc2ccccc2Cl)oc(/C=C2\C=Nc3ncccc32)c1O (10 µM)	inactive: 0	inactive: 0	inactive: 0	inactive: 0	inactive: 0	inactive: 0	inactive: 0	inactive: 0	inactive: 0	inactive: 0
Cc1ncc(-c2cc(F)c(O)c(F)c2)cc1-c1cc(F)c(O)c(F)c1 (10 µM)	inactive: 0	inactive: 0	inactive: 0	inactive: 0	inactive: 0	inactive: 0	inactive: 0	inactive: 0	inactive: 0	inactive: 0
O=c1cc(N2CCOCC2)oc2c(-c3cccc4c3sc3ccccc34)cccc12 (10 µM)	inactive: 0	inactive: 0	inactive: 0	inactive: 0	inactive: 0	inactive: 0	inactive: 0	inactive: 0	inactive: 0	inactive: 0
Oc1ccc(-c2cnc3ccc(NCc4ccco4)nn23)cc1 [IRAK inhibitor 2] (2.5 µM)	inactive: 0	inactive: 0	inactive: 0	inactive: 0	inactive: 0	inactive: 0	inactive: 0	inactive: 0	inactive: 0	inactive: 0
COC(=O)N1CCN(C2CCC(Nc3nc(Nc4cnn(C)c4)nc4ccc(CC#N)nc34)CC2)CC1 (stereo not given) (10 µM)	inactive: 0	inactive: 0	inactive: 0	inactive: 0	inactive: 0	inactive: 0	inactive: 0	inactive: 0	inactive: 0	inactive: 0
COc1ccc(CCNCc2ccc(OCc3ccc(Cl)nc3)c(OC)c2)cc1OC [SBE13 (Hydrochloride)] (10 µM)	inactive: 0	inactive: 0	inactive: 0	inactive: 0	inactive: 0	inactive: 0	inactive: 0	inactive: 0	inactive: 0	inactive: 0
COc1cc2nc(NC3CC3)nc(NC3CCN(C(C)C)CC3)c2cc1OC (10 µM)	inactive: 0	inactive: 0	inactive: 0	inactive: 0	inactive: 0	inactive: 0	inactive: 0	inactive: 0	inactive: 0	inactive: 0
O=C1Cc2ccccc2N1 [Oxindole] (10 µM)	inactive: 0	inactive: 0	inactive: 0	inactive: 0	inactive: 0	inactive: 0	inactive: 0	inactive: 0	inactive: 0	inactive: 0
CC(C)=CCC[C@](C)(O[C@@H]1O[C@H](CO[C@@H]2O[C@H](CO)[C@@H](O)[C@H](O)[C@H]2O)[C@@H](O)[C@H](O)[C@H]1O)[C@H]1CC[C@]2(C)[C@@H]1[C@H](O)C[C@@H]1[C@@]3(C)CC[C@H](O[C@@H]4O[C@H](CO)[C@@H](O)[C@H](O)[C@H]4O[C@@H]4O[C@H](CO)[C@@H](O)[C@H](O)[C@H]4O)C(C)(C)[C@@H]3CC[C@]12C [Ginsenoside Rb1] (10 µM)	inactive: 0	inactive: 0	inactive: 0	inactive: 0	inactive: 0	inactive: 0	inactive: 0	inactive: 0	inactive: 0	inactive: 0
Cc1ncsc1-c1ccc(CNC(=O)[C@@H]2C[C@@H](O)CN2C(=O)[C@@H](NC(=O)COCCOc2ccc(-c3cc(Nc4ccc(OC(F)(F)F)cc4)ncn3)cc2)C(C)(C)C)cc1 (2.5 µM)	inactive: 0	inactive: 0	inactive: 0	inactive: 0	inactive: 0	inactive: 0	inactive: 0	inactive: 0	inactive: 0	inactive: 0
Cc1cncc2cccc(S(=O)(=O)N3CCCNC[C@@H]3C)c12 [H-1152 (dihydrochloride)] (10 µM)	inactive: 0	inactive: 0	inactive: 0	inactive: 0	inactive: 0	inactive: 0	inactive: 0	inactive: 0	inactive: 0	inactive: 0
O=C1OC(COc2ccccc2[N+](=O)[O-])CC1Cc1ccccc1 (stereo not given) (10 µM)	inactive: 0	inactive: 0	inactive: 0	inactive: 0	inactive: 0	inactive: 0	inactive: 0	inactive: 0	inactive: 0	inactive: 0
C=CC(=O)N1CCC(c2ccc(C(N)=O)c(-c3ccc(Oc4ccccc4)cc3)n2)CC1 [Orelabrutinib] (2.5 µM)	inactive: 0	inactive: 0	inactive: 0	inactive: 0	inactive: 0	inactive: 0	inactive: 0	inactive: 0	inactive: 0	inactive: 0
Cn1cc(-c2nc(N[C@@H]3CCCC[C@@H]3N)c(F)c3c2C(=O)NC3)cn1 [TAK-659 (hydrochloride)] (2 µM)	inactive: 0	inactive: 0	inactive: 0	inactive: 0	inactive: 0	inactive: 0	inactive: 0	inactive: 0	inactive: 0	inactive: 0
CN1C(=O)N[C@@H](Cc2c[nH]c3c(Cl)cccc23)C1=O [Necrostatin 2 (S enantiomer)] (10 µM)	inactive: 0	inactive: 0	inactive: 0	inactive: 0	inactive: 0	inactive: 0	inactive: 0	inactive: 0	inactive: 0	inactive: 0
Nc1ccc(-c2cccc(C(=O)Nc3cnc4nc(N5CCOCC5)oc4c3)n2)cn1 (10 µM)	inactive: 0	inactive: 0	inactive: 0	inactive: 0	inactive: 0	inactive: 0	inactive: 0	inactive: 0	inactive: 0	inactive: 0
Cc1cccc(-c2nn3c(c2-c2ccnc4ccc(C(N)=O)cc24)CCC3)n1 [Galunisertib] (10 µM)	inactive: 0	inactive: 0	inactive: 0	inactive: 0	inactive: 0	inactive: 0	inactive: 0	inactive: 0	inactive: 0	inactive: 0
COc1c(O)cc(O)c2c(=O)cc(-c3ccccc3)oc12 [Wogonin] (10 µM)	inactive: 0	inactive: 0	inactive: 0	inactive: 0	inactive: 0	inactive: 0	inactive: 0	inactive: 0	inactive: 0	inactive: 0
Nc1ccc(-c2nc3ccc(-c4nc5ccc(N)cc5[nH]4)cc3[nH]2)cc1 (10 µM)	inactive: 0	inactive: 0	inactive: 0	inactive: 0	inactive: 0	inactive: 0	inactive: 0	inactive: 0	inactive: 0	inactive: 0
CN1CCN(Cc2ccc(-c3cn(C4CCC(O)CC4)c4nc(NCCC5CC5)ncc34)cc2)CC1 (stereo not given) (2.5 µM)	inactive: 0	inactive: 0	inactive: 0	inactive: 0	inactive: 0	inactive: 0	inactive: 0	inactive: 0	inactive: 0	inactive: 0
CN1CCN(Cc2ccc(-c3cnc4[nH]cc(-c5ccc6[nH]ccc6c5)c4c3)cc2)CC1 (2.5 µM)	inactive: 0	inactive: 0	inactive: 0	inactive: 0	inactive: 0	inactive: 0	inactive: 0	inactive: 0	inactive: 0	inactive: 0
Cc1cccc(CC(=O)N2CCc3c2ccc(-c2cn(C)c4ncnc(N)c24)c3F)n1 (10 µM)	inactive: 0	inactive: 0	inactive: 0	inactive: 0	inactive: 0	inactive: 0	inactive: 0	inactive: 0	inactive: 0	inactive: 0
Nc1nccc(Oc2ccc3c(C(=O)Nc4cccc(C(F)(F)F)c4)cccc3c2)n1 (10 µM)	inactive: 0	inactive: 0	inactive: 0	inactive: 0	inactive: 0	inactive: 0	inactive: 0	inactive: 0	inactive: 0	inactive: 0
CC(C)(Oc1ccc(Cl)cc1)C(=O)Nc1ccc(OCc2ccc(C#N)cc2)cc1 [AMPK activator 4] (10 µM)	inactive: 0	inactive: 0	inactive: 0	inactive: 0	inactive: 0	inactive: 0	inactive: 0	inactive: 0	inactive: 0	inactive: 0
Cn1cnc2c(F)c(Nc3ccc(Br)cc3F)c(C(=O)NOCCO)cc21 [Binimetinib] (10 µM)	inactive: 0	inactive: 0	inactive: 0	inactive: 0	inactive: 0	inactive: 0	inactive: 0	inactive: 0	inactive: 0	inactive: 0

Some of the entries so far, as comma-separated lines:
SMILES,kinase-Nluc reporter destabilization hit call (CDK7),kinase-Nluc reporter destabilization hit call (CDK9),kinase-Nluc reporter destabilization hit call (CHEK2),kinase-Nluc reporter destabilization hit call (CSF1R),kinase-Nluc reporter destabilization hit call (CSK),kinase-Nluc reporter destabilization hit call (CSNK1A1),kinase-Nluc reporter destabilization hit call (CSNK1D),kinase-Nluc reporter destabilization hit call (DDR1),kinase-Nluc reporter destabilization hit call (DYRK1B),kinase-Nluc reporter destabilization hit call (DYRK2)
CCOc1cc(=O)[nH]cc1-c1ccc(CC(=O)Nc2cc(C(C)(C)C(F)(F)F)on2)c(F)c1 (10 µM),inactive: 0,inactive: 0,inactive: 0,inactive: 0,inactive: 0,inactive: 0,inactive: 0,inactive: 0,inactive: 0,inactive: 0
COc1c(O)cc(O)c2c(=O)cc(-c3ccccc3)oc12 [Wogonin] (10 µM),inactive: 0,inactive: 0,inactive: 0,inactive: 0,inactive: 0,inactive: 0,inactive: 0,inactive: 0,inactive: 0,inactive: 0
